Experimental findings from PMC4378271 are described below.

Chains of the proteins cited; added tags and fusions are not shown. Residues count along the entry.
UniProt Q3UVX5, residues 19-1203: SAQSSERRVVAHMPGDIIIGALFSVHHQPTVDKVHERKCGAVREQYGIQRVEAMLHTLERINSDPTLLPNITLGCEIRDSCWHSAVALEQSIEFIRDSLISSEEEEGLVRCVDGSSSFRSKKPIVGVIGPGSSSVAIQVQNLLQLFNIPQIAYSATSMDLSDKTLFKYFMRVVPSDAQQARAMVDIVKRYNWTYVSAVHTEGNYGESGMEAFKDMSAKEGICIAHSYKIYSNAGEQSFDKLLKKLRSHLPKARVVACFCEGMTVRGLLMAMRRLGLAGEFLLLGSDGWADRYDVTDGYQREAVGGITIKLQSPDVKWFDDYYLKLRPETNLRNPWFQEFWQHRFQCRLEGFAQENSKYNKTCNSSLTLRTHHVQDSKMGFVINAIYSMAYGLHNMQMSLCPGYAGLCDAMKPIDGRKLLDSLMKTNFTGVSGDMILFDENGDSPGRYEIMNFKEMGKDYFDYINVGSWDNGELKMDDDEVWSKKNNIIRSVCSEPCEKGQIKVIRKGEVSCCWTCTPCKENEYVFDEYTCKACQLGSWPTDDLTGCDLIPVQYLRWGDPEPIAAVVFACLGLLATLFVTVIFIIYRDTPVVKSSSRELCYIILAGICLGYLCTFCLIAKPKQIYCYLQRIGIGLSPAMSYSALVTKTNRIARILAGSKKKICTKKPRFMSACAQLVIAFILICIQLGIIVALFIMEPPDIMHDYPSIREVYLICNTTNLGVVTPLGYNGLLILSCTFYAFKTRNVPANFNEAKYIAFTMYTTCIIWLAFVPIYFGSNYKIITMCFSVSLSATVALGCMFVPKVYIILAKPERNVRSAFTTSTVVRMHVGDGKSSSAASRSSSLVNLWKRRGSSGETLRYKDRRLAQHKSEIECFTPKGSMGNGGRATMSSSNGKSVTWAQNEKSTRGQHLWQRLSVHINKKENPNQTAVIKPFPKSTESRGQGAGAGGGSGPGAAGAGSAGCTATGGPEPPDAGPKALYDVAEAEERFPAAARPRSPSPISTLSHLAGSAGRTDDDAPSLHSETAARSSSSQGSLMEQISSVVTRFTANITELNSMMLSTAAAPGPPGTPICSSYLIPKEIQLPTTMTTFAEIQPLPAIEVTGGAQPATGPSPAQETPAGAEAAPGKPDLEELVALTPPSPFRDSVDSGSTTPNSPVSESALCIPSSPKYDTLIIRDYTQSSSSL
UniProt P11798: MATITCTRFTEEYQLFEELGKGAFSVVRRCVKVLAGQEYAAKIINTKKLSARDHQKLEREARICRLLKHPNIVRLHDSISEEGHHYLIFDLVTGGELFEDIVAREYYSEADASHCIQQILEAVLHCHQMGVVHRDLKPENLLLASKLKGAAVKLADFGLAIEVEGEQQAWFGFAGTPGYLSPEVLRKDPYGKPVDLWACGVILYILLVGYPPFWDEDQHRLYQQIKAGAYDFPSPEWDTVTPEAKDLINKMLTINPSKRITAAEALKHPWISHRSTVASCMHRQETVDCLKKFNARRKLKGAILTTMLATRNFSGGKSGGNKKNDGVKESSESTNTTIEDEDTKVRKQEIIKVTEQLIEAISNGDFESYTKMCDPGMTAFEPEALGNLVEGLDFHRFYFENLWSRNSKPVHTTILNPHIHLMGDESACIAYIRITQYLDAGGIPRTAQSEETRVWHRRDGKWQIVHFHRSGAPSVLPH

The experiment has as its target endogenous mGluR5a (mouse hippocampus) (mouse (endogenous in hippocampus)) (UniProt Q3UVX5). Put plainly: co-IP; adult CD-1 mouse hippocampal lysate (0.5% Triton X-100), 1 mg protein, protein G sepharose with rabbit polyclonal mGluR5 antibody; blot for CaMKIIα.

No constants are given. Whether binding was seen depends on the method and setting. Binding seen in cells or lysates may run through a third protein. Some binding calls cover weakened binding; strength is not graded here.

For the substance “Ca2+/Calmodulin Kinase IIα (endogenous, mouse) (from UniProt P11798 1-478)”, the binding result is on record as “binds”.
